Measurements: patent US20240043838A1
Results are given in words; binding and its absence hold for the method and conditions named. In cells and extracts the contact can be indirect. Some entries that bind do so weakly or less than the wild type. Tags and fused reporters may be left off the sequences shown.

Protein sequences, listed by entry. Tags and fused reporters are not part of them. Lines headed by an entry give the natural chain unless they say otherwise; changes in a name come on top. Chains listed by the source or under a name are the forms on record and can include a tag or linker. Residues count along the entry.
UniProt Q8K212: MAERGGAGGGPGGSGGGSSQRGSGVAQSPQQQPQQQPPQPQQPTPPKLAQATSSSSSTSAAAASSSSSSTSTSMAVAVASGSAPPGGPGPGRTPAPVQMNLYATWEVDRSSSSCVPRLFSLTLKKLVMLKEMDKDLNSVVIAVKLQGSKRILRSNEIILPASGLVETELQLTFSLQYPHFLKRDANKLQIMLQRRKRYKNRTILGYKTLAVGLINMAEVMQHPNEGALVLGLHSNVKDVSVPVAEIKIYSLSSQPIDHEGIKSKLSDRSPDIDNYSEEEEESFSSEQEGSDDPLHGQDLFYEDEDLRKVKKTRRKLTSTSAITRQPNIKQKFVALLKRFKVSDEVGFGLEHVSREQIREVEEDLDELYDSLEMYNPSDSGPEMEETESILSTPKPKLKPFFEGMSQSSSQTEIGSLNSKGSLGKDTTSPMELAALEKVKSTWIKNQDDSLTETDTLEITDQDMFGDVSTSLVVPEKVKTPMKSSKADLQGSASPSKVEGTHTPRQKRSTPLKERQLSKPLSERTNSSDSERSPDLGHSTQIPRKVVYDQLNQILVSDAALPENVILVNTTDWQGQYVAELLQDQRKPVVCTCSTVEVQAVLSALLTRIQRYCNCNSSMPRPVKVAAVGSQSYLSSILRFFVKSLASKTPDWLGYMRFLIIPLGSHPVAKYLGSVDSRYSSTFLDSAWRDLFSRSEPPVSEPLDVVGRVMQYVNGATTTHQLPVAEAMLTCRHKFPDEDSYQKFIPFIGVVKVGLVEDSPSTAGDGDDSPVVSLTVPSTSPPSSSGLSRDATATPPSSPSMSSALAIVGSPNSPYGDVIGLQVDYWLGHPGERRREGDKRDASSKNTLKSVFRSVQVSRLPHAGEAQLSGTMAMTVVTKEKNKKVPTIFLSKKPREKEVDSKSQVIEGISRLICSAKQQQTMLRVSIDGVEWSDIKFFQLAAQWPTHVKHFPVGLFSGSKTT
FLAG-tagged Pacs1 (amino acids 171-961): residues 171-961 of Q8K212

B1: HA-tagged full-length Wdr37 (protein, mouse, UniProt Q8CBE3 1-496, looked up, not shown: small tags and cut ends)
chain: MPTESGSCSTARQAKQKRKSHSLSIRRTNSSEQERTGLPREMLEGQDSKLPSSVRSTLLELFGQIEREFENLYIENLELRREIDTLNERLAGEGQAIDGAELSKGQLKTKASHSTSQLSQKLKTTYKASTSKIVSSFKTTTSRAICQLVKEYIGHRDGIWDVSVTRTQPIVLGTASADHTALLWSIETGKCLVKYAGHVGSVNSIKFHPSEQLALTASGDQTAHIWRYVVQLPTPQPVADTSQQISGEDEIECSDKDEPDIDGDVSSDCPTVRVPLTSLKSHQGVVIAADWLVGGKQVVTASWDRTANLYDVETSELVHSLTGHDQELTHCCTHPTQRLVVTSSRDTTFRLWDFRDPSIHSVNVFQGHTDTVTSAVFTVGDNVVSGSDDRTVKVWDLKNMRSPIATIRTDSAINRINVCVGQKIIALPHDNRQVRLFDMSGVRLARLPRSSRQGHRRMVCCSAWSEDHPICNLFTCGFDRQAIGWNINIPALLQEK

Experiments:
[1] = target: T1, FLAG-Wdr37 (mouse) (UniProt Q8CBE3); assay: reciprocal co-immunoprecipitation on anti-FLAG resin, co-transfected HEK 293T cells, western blot
T1 sequence (looked up): B1 chain

[2] = target: T1, FLAG-Wdr37 (mouse); assay: co-immunoprecipitation, co-transfected 293T cells
[3] = target: FLAG-tagged Pacs1 (amino acids 171-961) (mouse) (UniProt Q8K212); assay: co-immunoprecipitation on anti-FLAG resin, co-transfected HEK 293T cells, western blot
[4] = target: FLAG-tagged Pacs1 (amino acids 171-961) (mouse) (UniProt Q8K212); assay: co-immunoprecipitation, co-transfected 293T cells

Molecule	binding [1]	binding [2]	binding [3]	binding [4]
HA-Pacs1 (from UniProt Q8K212 114-961)	binds	binds		
B1			binds	binds
